Test results reported in paper PMC8699642.
Results are given in words; binding and its absence hold for the method and conditions named. In cells and extracts the contact can be indirect. Some results given as binding are weak or reduced against the parent protein; the word gives no strength.

Sequences of proteins named here, by UniProt entry; tags and fusion partners are left off.
UniProt Q9Z2E1: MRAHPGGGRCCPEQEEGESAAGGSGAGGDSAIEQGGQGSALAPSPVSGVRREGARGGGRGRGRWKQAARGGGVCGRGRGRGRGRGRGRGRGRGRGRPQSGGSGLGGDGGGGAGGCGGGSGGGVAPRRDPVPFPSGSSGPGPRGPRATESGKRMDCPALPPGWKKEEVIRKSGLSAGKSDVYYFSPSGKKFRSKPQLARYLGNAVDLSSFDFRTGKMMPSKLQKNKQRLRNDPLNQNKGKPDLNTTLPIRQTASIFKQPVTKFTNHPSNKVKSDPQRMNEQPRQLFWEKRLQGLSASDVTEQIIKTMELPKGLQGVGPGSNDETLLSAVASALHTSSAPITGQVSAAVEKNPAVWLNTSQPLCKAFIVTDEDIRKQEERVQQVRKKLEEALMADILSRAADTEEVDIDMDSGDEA
UniProt Q9QVP9: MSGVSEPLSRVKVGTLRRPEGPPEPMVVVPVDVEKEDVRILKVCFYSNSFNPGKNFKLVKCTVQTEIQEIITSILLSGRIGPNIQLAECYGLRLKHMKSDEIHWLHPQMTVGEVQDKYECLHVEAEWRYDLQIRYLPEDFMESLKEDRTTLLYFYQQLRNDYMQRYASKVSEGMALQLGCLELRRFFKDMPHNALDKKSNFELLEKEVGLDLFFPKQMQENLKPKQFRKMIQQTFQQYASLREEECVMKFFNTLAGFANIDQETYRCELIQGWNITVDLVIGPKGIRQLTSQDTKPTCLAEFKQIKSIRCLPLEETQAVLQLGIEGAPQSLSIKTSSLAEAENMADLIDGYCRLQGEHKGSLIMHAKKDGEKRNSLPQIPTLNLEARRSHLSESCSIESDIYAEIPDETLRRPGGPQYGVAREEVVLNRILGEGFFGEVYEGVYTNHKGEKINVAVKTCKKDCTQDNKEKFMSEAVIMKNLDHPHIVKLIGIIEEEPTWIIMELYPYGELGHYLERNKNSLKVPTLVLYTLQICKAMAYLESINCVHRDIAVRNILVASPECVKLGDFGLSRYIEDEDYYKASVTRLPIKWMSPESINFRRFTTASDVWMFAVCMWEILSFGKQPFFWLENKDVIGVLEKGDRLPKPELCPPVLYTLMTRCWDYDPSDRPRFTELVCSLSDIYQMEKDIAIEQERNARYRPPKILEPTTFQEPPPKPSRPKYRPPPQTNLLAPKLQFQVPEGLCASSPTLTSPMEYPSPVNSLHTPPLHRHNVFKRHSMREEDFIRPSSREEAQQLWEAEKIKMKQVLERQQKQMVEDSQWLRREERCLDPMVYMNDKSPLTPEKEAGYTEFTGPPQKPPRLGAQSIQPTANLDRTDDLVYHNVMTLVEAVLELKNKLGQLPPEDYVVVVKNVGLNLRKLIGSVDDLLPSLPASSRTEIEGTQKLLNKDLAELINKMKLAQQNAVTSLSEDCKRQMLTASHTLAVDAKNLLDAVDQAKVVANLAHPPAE

Key:
[1] = target: MBD2-Venus (mouse Methyl-CpG-binding domain protein-2 fused to mVenus) (mouse) (UniProt Q9Z2E1); experiment: FRET or BRET; FRET-FLIM in living MLO-Y4 cells triple-transfected with Src-Scarlet, Pyk2-Cer3 and MBD2-Venus; lifetimes of Pyk2-Cer3 and of MBD2-Venus measured
[2] = target: MBD2-Venus (mouse Methyl-CpG-binding domain protein-2 fused to mVenus) (mouse) (UniProt Q9Z2E1); experiment: FRET or BRET; FRET-FLIM in living MLO-Y4 cells co-transfected with a donor (Cer3 fusion) and one acceptor (Scarlet or Venus fusion); donor lifetime by frequency-domain FLIM, 37°C, 5% CO2; regions of interest: focal adhesions, cytoplasm, peri-nuclear region, nucleus; static culture, for Pyk2-Cer3/Src-Scarlet also after 1 hour of fluid flow on an orbital shaker

## Pyk2-Cer3 (mouse Proline-rich kinase-2 fused to monomeric Cerulean3) (from UniProt Q9QVP9 1-1009)
[1]
  binding: binds
[2]
  binding: binds
